{
  "source": "the supplement of paper PMC8007513",
  "note": "This is one part of the list. Many values rest on one well or one pass, so single values are uncertain.",
  "data": [
    {"tested_on": "Saccharomyces cerevisiae BY4743", "assay": "growth (OD600) relative to untreated control; higher = less growth inhibition", "details": "compound concentration: 133 uM; 20 h", "experimental": "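NMCCC compounds (133 uM, no IPBC) tested alone against Saccharomyces cerevisiae BY4743 in YPD, 96-well plates, starting OD600 ~0.1. Growth was read as OD600 at 20 h and expressed as % of the untreated control. Single pass.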", "units": {"growth": "%"}, "values": [
      {"smiles": "Cc1noc(C(=O)N2CCC3(CC2)OCCO3)c1Cl", "growth": 107},
      {"smiles": "NCCCC(=O)OC1\\N=C(\\C2=CC=CC=C2Cl)C3=CC(=CC=C3NC1=O)Br", "note": "(centres undefined)", "growth": 105},
      {"smiles": "COc1cc2c(cc1OC)C1CC(=O)C(CC(C)C)CN1CC2", "note": "(centres undefined)", "growth": 99.9},
      {"smiles": "O=C(OCC(=O)N1CCNC1=O)c1cnn(Cc2ccccc2)c1", "growth": 85.1},
      {"smiles": "COC(=O)C(O)(c1cn(C)c2ccccc12)C(F)(F)F", "note": "(centres undefined)", "growth": 94.5},
      {"smiles": "CC1C\\N=C(\\NC2=NC=CC=C2C)S1", "note": "(centres undefined)", "growth": 98.9},
      {"smiles": "COc1ccc(NC(=O)c2c(C)nn(Cc3ccccc3Cl)c2C)cc1", "growth": 95.7},
      {"smiles": "CCS\\C1=N\\C2=CC=CC=C2C(=O)N1C3=CC=CN=C3", "growth": 104},
      {"smiles": "CC(=O)NN1C(=O)c2ccccc2NC1c1cccnc1", "note": "(centres undefined)", "growth": 105}
    ]}
  ]
}
